From patent publication US9211294B2, “Phenothiazine compounds for treating mild cognitive impairment” (WisTa Laboratories Ltd., priority 2007, dated 2015) come the findings set out here.

Molecules are shown by their SMILES. Counter-ions that a name gives are not always drawn.

The data set deals with scopolamine-treated NMRI mice. As to the kind of experiment: Morris water maze spatial reference memory task, reversal of scopolamine-induced cognitive deficits. The settings on record: mg/kg i.p. In kind it is in vivo. The protocol:
Female, NMRI mice aged 3-4 months were from Harlan, UK.
Mice were group housed (7-9 per cage) and maintained with light from 7 am-7 pm and experiments carried out in the light phase. […] They were separated into 6 groups to receive drug administrations as follows:
The injection volume for drugs was 0.2 ml per 30 g animal weight and they were injected intraperitoneally. The doses were as indicated above.
The water maze consisted of a water-filled pool (1.5 m diameter; 20±2° C.) in which a platform submerged 1 cm below water surface was the only means of escape. Mice were released from 4 cardinal sites (South, West, North and East) facing the wall of the pool in random fashion and thus had to acquire spatial knowledge of the exact platform location by spatial mapping procedures using distal cues.
Each animal was given 6 trials/day and was allowed to swim for a maximum time of 60 seconds and stay 30 seconds on the platform. […] An inter-trial interval of 10-20 minutes was given. The animals were trained for 4 consecutive days and received probe trials (free swim for 60 seconds without platform in the pool) approximately 1.5 and 24 hours post-training to test short and long-term memory, respectively. The behaviour of animals was recorded via an overhead camera and data transmitted to the PC for online storage and analysis (EthoVision basic version 3.0.8. Noldus Information Technology, Netherlands).
Probe trial data were analysed by one-way ANOVA and the appropriate post-hoc tests (Bonferroni's multiple comparison test or Newman Keuls) were carried out to determine the source of a significant main effect or interaction. Analyses were performed two-tailed and the null hypothesis was […] at probability levels of 5% (p<0.05). Only terms for reliable differences are mentioned in the text for simplicity.

Regarding `CCN(C)C(=O)Oc1cccc([C@H](C)N(C)C)c1` [rivastigmine, rivastigmine tartrate], the Swim speed result was “significantly differed from controls” (scopolamine (0.5) then Rivast (0.1)); “↑” (scopolamine (0.5) then Rivast (0.1), listed as Rivast); “speed decreased over the last two training days” (scopolamine (0.5) then Rivast (0.5)).
